# Source: PubChem BioAssay AID445 (National Center for Advancing Translational Sciences (NCATS), 2006)
# The other results are listed elsewhere or left out. Shown are side measurements of this screen, not its main read-out; they come without a call. Compounds called inactive in the main read-out are mostly missing here. The note in brackets gives the kind of curve behind each potency; many fits are weak.
# Test: IkB Signaling
# Details: ABC-DLBCL IkBa-CBG/CBR dual luciferase ratio (green luciferase fused to IkBa over red control in OCI-Ly3 lymphoma cells), 4 h
# In short: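 Luminescence ratio of IκBα-fused green versus native red beetle luciferase in OCI-Ly3 cells, 4 h post-doxycycline with compound; red signal alone, scaled from basal (0%) to zero light (-100%), flagged nonspecific or cytotoxic effects.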
# [1] = measured here: control luc red channel unless noted
compound,measurement,setting,value
CCOc1ccc(NC(=O)c2cc3cc4ccc(C)cc4nc3o2)cc1,AC50,[1],"12.6 µM [rising, partial curve]"
Brc1cccc(-c2nnn3c2nc(NC2CCCCC2)c2ccccc23)c1,AC50,[1],"1 µM [falling, full curve]"
COc1ccc(N(C(=O)c2ccco2)C(C(=O)NC2CCCC2)c2ccc(N(C)C)cc2)cc1 (stereo unspecified),AC50,[1],"12.6 µM [falling, partial curve]"
CCOC(=O)Cc1csc(NC(=O)CSc2nc3cccnc3n2CC)n1,AC50,[1],"25.1 µM [falling, single point]"
CCS(=O)(=O)c1ncc(Cl)c(C(=O)Nc2ccc(S(=O)(=O)N(C)c3ccccc3)cc2)n1,AC50,[1],"3.16 µM [falling, full curve]"
CC1CCCCN1CCNC(=O)c1ccc(Cn2c(SCc3ccccc3)nc3cccnc32)cc1 (stereo unspecified),AC50,[1],"25.1 µM [falling, single point]"
Cc1noc(C)c1CSCC(=O)N1CCN(c2ccc(F)cc2)CC1,AC50,[1],"25.1 µM [falling, partial curve]"
Cc1cccc(C)c1Nc1sc(C(=O)c2ccccc2)c(N)c1S(=O)(=O)c1ccccc1,AC50,[1],"39.8 µM [falling, single point]"
CCc1cccc(NC(=O)C2CCN(S(=O)(=O)c3ccc(Br)s3)CC2)c1,AC50,[1],"15.8 µM [falling, partial curve]"
Cc1ccc(C)c(NC(=O)Nc2cc3c(cc2N2CCCCC2)n(C)c(=O)n3C)c1,AC50,[1],"3.16 µM [falling, single point]"
COc1ccc(Cn2c(C(=O)O)c(CNCc3ccco3)c3ccc(C)cc32)cc1,AC50,[1],"20 µM [falling, partial curve]"
COCCNC(=O)CSc1c(C)cnc2c1c(=O)n(C)c(=O)n2C,AC50,[1],"5.01 µM [rising, partial curve]"
Cc1ccc(NC(=O)Cn2cnc3c(oc4ccccc43)c2=O)cc1Cl,AC50,[1],"20 µM [falling, single point]"
CCSc1ccccc1C(=O)N1CCN(c2nc3ccccc3s2)CC1,AC50,[1],"31.6 µM [falling, single point]"
COc1cccc(NC(=O)c2oc3ccc(S(=O)(=O)N(C)C4CCCCC4)cc3c2C)c1,AC50,[1],"12.6 µM [falling, partial curve]"
COC(=O)c1ccc(NC(=O)c2cnn(-c3ccc(Cl)cc3)c2C2CCN(C(=O)OC(C)(C)C)CC2)cc1,AC50,[1],"39.8 µM [falling, single point]"
Cc1cccc(C)c1NC(=O)CSc1nnc(Cn2nnc(-c3ccccc3)n2)n1-c1ccccc1,AC50,[1],"20 µM [falling, single point]"
Clc1ccc(-c2nnc3sc(-c4ccc(Br)o4)nn23)c(Cl)c1,AC50,[1],"20 µM [falling, partial curve]"
Cc1cc(C)c(NC(=O)c2cc(C)nc3c2c(C)nn3-c2cccc(F)c2)c(C)c1,AC50,[1],"31.6 µM [falling, single point]"
CCN(CC)C(=O)c1c(NC(=O)c2ccccc2F)sc2c1CCC(C(C)(C)C)C2 (stereo unspecified),AC50,[1],"12.6 µM [falling, partial curve]"
CCCn1c(=O)sc2cc(NC(=O)c3ccccc3Cl)ccc21,AC50,[1],"39.8 µM [falling, single point]"
COc1cccc(N2CCN(C(=O)c3cccn3-c3nnc(N4CCCCC4)s3)CC2)c1,AC50,[1],"15.8 µM [falling, partial curve, poor fit]"
COCCCNC(=O)CCCn1c(SCC(=O)c2ccc(Br)cc2)nc2c(sc3ccccc32)c1=O,AC50,[1],"12.6 µM [falling, partial curve]"
Cc1ccc(C(=O)NCC(c2ccc(Cl)cc2)N2CCCCC2)cc1 (stereo unspecified),AC50,[1],"39.8 µM [falling, single point]"
CCOc1ccc(C(=O)N2CC(=O)Nc3ccc(C)cc3C2c2ccc(F)cc2)cc1OCC (stereo unspecified),AC50,[1],"31.6 µM [falling, single point]"
Cc1ccc(Cl)c2sc(NC(=O)c3ccc(S(=O)(=O)N4CCCC4)cc3)nc12,AC50,[1],"1 µM [falling, partial curve]"
C/C(=N/Nc1ccc2ccccc2n1)c1ccccc1O,AC50,[1],"0.794 µM [falling, partial curve]"
O=C(CSc1nn(-c2ccc(F)cc2)c(=S)s1)NC(=O)NCc1ccco1,AC50,[1],"12.6 µM [falling, partial curve]"
CSc1cccc(-n2nnc(-c3nsc(NC(=O)c4cccs4)n3)c2C)c1,AC50,[1],"0.1 µM [rising, full curve, poor fit]"
O=C(Nc1cnn(Cc2ccc(Cl)cc2Cl)c1)c1noc2c1CCCC2,AC50,[1],"12.6 µM [falling, partial curve]"
CCn1c(SCC(=O)Nc2ccc3c(c2)c2ccccc2n3CC)nnc1-c1cnccn1,AC50,[1],"3.16 µM [falling, full curve, poor fit]"
Cc1ccc(NC(=O)CN2C(=O)C(c3ccccc3)=NC23CCCCC3)cc1C,AC50,[1],"31.6 µM [falling, single point]"
CCc1ccc2occ(CC(=O)N(Cc3ccccc3)C3CCS(=O)(=O)C3)c2c1 (stereo unspecified),AC50,[1],"25.1 µM [falling, single point]"
COc1ccc(-n2c(C)nc3c(cnn3-c3ccc(C)c(C)c3)c2=O)cc1Cl,AC50,[1],"10 µM [falling, partial curve]"
Cc1ccc(C)c(C(=O)N(Cc2nc(-c3ccc(Cl)cc3)no2)C(C)C)c1,AC50,[1],"10 µM [falling, partial curve]"
COc1cc(/C=C(/C#N)c2nc(-c3cc4ccccc4oc3=O)cs2)ccc1O,AC50,measured here: IkB-luc green channel,"25.1 µM [rising, single point]"
same,AC50,measured here: control luc red channel,"15.8 µM [rising, partial curve]"
Cc1cccc(NC(=O)CSc2nc3c([nH]c4ccccc43)c(=O)n2-c2cc(C)cc(C)c2)c1,AC50,[1],"2.51 µM [rising, partial curve]"
CCOC(=O)Cc1csc(NC(=O)c2csc(C)c2)n1,AC50,[1],"10 µM [falling, partial curve]"
CC1CCCCN1C(=O)CSc1nc(-c2ccccc2)no1 (stereo unspecified),AC50,[1],"15.8 µM [falling, partial curve]"
COc1cc(OC)cc(C(=O)Nc2nc(-c3nnn(-c4ccc(C)cc4)c3C)ns2)c1,AC50,[1],"15.8 µM [rising, partial curve]"

# Reformatted with bars between the fields: entries from further up.
compound | measurement | setting | value
COCCNC(=O)CSc1c(C)cnc2c1c(=O)n(C)c(=O)n2C | AC50 | [1] | 5.01 µM [rising, partial curve]
Cc1ccc(NC(=O)Cn2cnc3c(oc4ccccc43)c2=O)cc1Cl | AC50 | [1] | 20 µM [falling, single point]
CCSc1ccccc1C(=O)N1CCN(c2nc3ccccc3s2)CC1 | AC50 | [1] | 31.6 µM [falling, single point]
